# In all, about 400,000 compounds went through this assay and about 13,000 (3.2%) were called active. The shares of active, inactive and inconclusive entries below differ from those in the screen. Calls come from the whole dose curve; as a rule, active = well fitted cell-killing curve with a large enough effect; inconclusive = small, poorly fitted or top-dose-only effect, or effect the other way; inactive = flat fitted curve, though single readings scatter. Potencies beside an inconclusive call are fits to weak or partial responses and may not hold up.
# Assay: qHTS assay for MDR1-selective chemotherapeutics: Primary screen using the drug-selected MDR subline cells KB-V1; note: nearly all actives have a fitted effect of over 60% in size
# Details: KB-V1 MDR cells viability, CellTiter-Glo, 72 h; activity change, negative = cytotoxicity: at 46.1 µM (top of the series)
# Summary of the method: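 Luminescent ATP read-out (CellTiter-Glo, 10 min) measures survival of drug-selected KB-V1 MDR cells after 72 h, 37 degrees C compound exposure. Medium: phenol-red-free DMEM, 10% FBS. Values from fitted concentration-response curves.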
# % is set by controls: 0 for no effect and ±100 for the full control effect; potency is the fitted concentration of half-maximal effect.
Compound,Potency,"activity change, negative = cytotoxicity"
COC(=O)[C@H]1[C@H](C(=O)OC)[C@@H](C(=O)OC)N(c2ccc(OC)cc2)[C@@H]1C(=O)OC,"inconclusive: 9.2 µM [rising, partial curve, poor fit]",–
O=[N+]([O-])c1ccc(CN2CCCCCC2)s1,"inconclusive: 23.1 µM [cytotoxic, partial curve, poor fit]",–
CC1C=CC=CC=CC=CC=CC=CC=CC(OC2OC(C)C(O)C(N)C2O)CC2OC(O)(CC(O)CC(O)C(O)CCC(O)CC(O)CC(=O)OC(C)C(C)C1O)CC(O)C2C(=O)O (centres undefined),"inconclusive: 29.1 µM [cytotoxic, single point]",–
O=C(Nc1ccccc1)N(C1=NCCC1)c1ccc(OC(F)F)cc1,"inconclusive: 5.8 µM [cytotoxic, partial curve]",–
Cc1oc2c(c1C(=O)NCc1cccnc1)C(=O)c1ccccc1C2=O,active: 2.59 µM,–
CCCCn1c(N)c(N(CC)C(=O)C(c2ccccc2)c2ccccc2)c(=O)[nH]c1=O,"inconclusive: 2.91 µM [rising, partial curve]",–
C=CCOC(=O)C1=C(C)NC(=S)NC1/C=C/c1ccccc1 (centres undefined),inactive,–
COCCNC(=O)C1CCCN(C(=O)c2csc3ccccc23)CC1 (centres undefined),inactive,–
COc1ccc(C[C@H]2CN3C(=NC[C@@H]3Cc3ccc(O)cc3)N2C[C@H](C)NC(=O)c2ccc(C)c(Br)c2)cc1,inactive,–
COc1ccc(C(C(=O)NCc2ccccc2)n2c(=O)c(-c3ccco3)nc3ccccc32)cc1 (centres undefined),"inconclusive: 18.4 µM [cytotoxic, partial curve]",–
c1ccc(-c2nnc(N3CCOCC3)nc2-c2ccccc2)cc1,inactive,–
COc1ccc(/C=C/C(=O)NC(=S)NNC(=O)c2ccco2)cc1OC,"inconclusive: 14.6 µM [cytotoxic, single point]",–
COc1ccc(OCCn2c(=N)n(CCO)c3ccccc32)cc1,inactive,–
CCCNC(=O)c1cc(C2CCCN(S(=O)(=O)c3cccc4cccnc34)C2)on1 (centres undefined),inactive,–
CCN(CC)c1ccc(C(=O)N/N=C(\C)c2ccc(OC)c(OC)c2)cc1,"inconclusive: 16.4 µM [cytotoxic, partial curve, poor fit]",–
O=C(COc1cccnc1[N+](=O)[O-])Nc1cccc2ccccc12,inactive,–
CC/C(=N\NC(N)=O)c1ccc(OC)c(OC)c1,"inconclusive: 32.6 µM [cytotoxic, single point]",–
CCOC(=O)C1=C(CN(C)Cc2ccccc2)NC(=O)NC1c1ccc(OC(C)C)cc1 (centres undefined),inactive,–
CCOC(=O)C1C(=O)CC(C)(O)C(C(=O)OCC)C1c1cc(Br)ccc1OC (centres undefined),"inconclusive: 9.2 µM [cytotoxic, partial curve, poor fit]",–
CCN(CC)CCNC(=O)c1ccc(NC(=O)c2ccc(-n3cncn3)c([N+](=O)[O-])c2)cc1,"inconclusive: 16.4 µM [rising, single point]",–
CC(C)c1ccc(Nc2c(-c3ccsc3)nc3ccc(Cl)cn23)cc1,inactive,–
COc1cc(NS(=O)(=O)c2ccc(NC(=O)c3ccc([N+](=O)[O-])cc3)cc2)ncn1,"inconclusive: 20.6 µM [rising, single point]",–
COc1cccc(C(=O)Cn2c(NCCO)nc3ccccc32)c1,inactive,–

Compound,Potency,"activity change, negative = cytotoxicity"
CCn1c(=O)c(C(=O)NNC(=O)c2ccccc2Br)c(O)c2ccccc21,"inconclusive: 5.8 µM [cytotoxic, partial curve]",–
CC1CCN(C(c2ccccc2)c2nnnn2C(C)(C)C)CC1 (centres undefined),"inconclusive: 10.3 µM [cytotoxic, partial curve]",–
CC(C)NC(=O)Cn1c(SCC(=O)N2CCCCCC2)nc2ccccc21,active: 14.6 µM,–
COC(=O)Cn1cc(/C=C/c2cc[n+](C)cc2)c2ccccc21,–,inconclusive: 49.7%
COc1ccc(Br)c2oc(SC)cc(=O)c12,"inconclusive: 3.66 µM [cytotoxic, partial curve]",–
Cc1cccnc1C(NC(=O)C1CCN(Cc2ccccc2)CC1)c1ccc(F)cc1 (centres undefined),"inconclusive: 16.4 µM [cytotoxic, partial curve]",–
Cn1cnc([N+](=O)[O-])c1Sc1ccncn1,inactive,–
CCOC(=O)C1CCN(C(=O)c2cc3c(C)cc(C)cc3[nH]2)CC1,"inconclusive: 2.91 µM [rising, partial curve, poor fit]",–
Cn1nnnc1Sc1ncnc2scc(-c3ccccc3C(F)(F)F)c12,"inconclusive: 29.1 µM [cytotoxic, partial curve, poor fit]",–
CC1CC(C)CN(S(=O)(=O)N2CCCC(C(=O)NC(C)c3ccccc3)C2)C1 (centres undefined),inactive,–
COc1ccc(S(=O)(=O)N2CCC(C(=O)NCCC(=O)NCc3ccccc3OC)CC2)cc1,"inconclusive: 32.6 µM [rising, single point]",–
COc1cccc(C2NC(=S)NC(C)=C2C(=O)c2ccccc2)c1OC (centres undefined),"inconclusive: 1.84 µM [cytotoxic, partial curve, poor fit]",–
O=C(Nc1ccccc1[N+](=O)[O-])c1csnn1,inactive,–
O=[N+]([O-])c1ccc(Cc2ccccn2)c([N+](=O)[O-])c1,"inconclusive: 3.66 µM [rising, partial curve]",–
COC(=O)c1c(NC(=O)COC(=O)c2ccc(Cl)cc2[N+](=O)[O-])sc2c1CCCCC2,"inconclusive: 16.4 µM [rising, single point]",–
CC(=O)N1CCN(CC(O)COc2ccc(S(=O)(=O)N3CCOCC3)cc2)CC1 (centres undefined),"inconclusive: 29.1 µM [rising, single point]",–
C/C=C/c1cccc(-c2nc(C(=O)N3CCOCC3)cc3c2[C@H](CCO)N(C(=O)NC(C)C)C3)c1,inactive,–
Cc1cc(C)c(S(=O)(=O)N2CCN(C(=O)c3c(C)nn(-c4ccccc4)c3Cl)CC2)c(C)c1,active: 5.17 µM,–
CCOc1ccc(-n2c(SCC(=O)N3CCCc4ccccc43)nc3c([nH]c4ccccc43)c2=O)cc1,"inconclusive: 8.2 µM [rising, partial curve, poor fit]",–
CN1CCN(S(=O)(=O)c2cc(Cl)c(Cl)cc2Cl)CC1,"inconclusive: 29.1 µM [cytotoxic, single point]",–
O=C(NCc1ccc(Cl)cc1)c1ccc(N2CCCC2=O)cc1,"inconclusive: 0.013 µM [cytotoxic, full curve]",–
FC(F)Oc1ccccc1/C=N/n1cnc2ccccc21,"inconclusive: 20.6 µM [cytotoxic, single point]",–
COc1ccccc1OC(C)C(=O)Nc1ccccc1C(=O)NCC1CCCO1 (centres undefined),"inconclusive: 8.2 µM [cytotoxic, partial curve]",–

Compound,Potency,"activity change, negative = cytotoxicity"
O=C(c1cnn2c(C(F)(F)F)cc(-c3ccco3)nc12)N1CCCCCC1,"inconclusive: 18.4 µM [cytotoxic, single point]",–
CCCCc1ccc(NC(=O)CN(C)CC(=O)Nc2ccccc2Cl)cc1,"inconclusive: 7.31 µM [cytotoxic, partial curve]",–
CCCOP(=O)(OCCC)C(Nc1cccc(C(F)(F)F)c1)c1ccc(C)cc1 (centres undefined),active: 11.6 µM,–
Cc1ccc(-n2nnnc2SCCNS(=O)(=O)c2ccccc2)cc1C,"inconclusive: 16.4 µM [cytotoxic, partial curve, poor fit]",–
COc1ccc(N2CCN(C(=O)C(=O)c3cn(CC(=O)N4CCCC4)c4ccccc34)CC2)cc1,"inconclusive: 18.4 µM [cytotoxic, partial curve, poor fit]",–
Cc1ccc2c(=O)cc(C(F)F)oc2c1,"inconclusive: 20.6 µM [rising, partial curve]",–
CCc1ccc(NC(=O)c2cc(CN3CCOCC3)on2)cc1,inactive,–
CC(C)OC1=CC(=O)OC(c2cccc(Cl)c2)C1 (centres undefined),inactive,–
CCOC(=O)c1[nH]c(C)c(C(=O)NCCc2ccccc2)c1C,inactive,–
Cc1nn(-c2ccccc2)c2sc(C(=O)N(CC(=O)NC3CCCC3)Cc3ccco3)cc12,"inconclusive: 14.6 µM [cytotoxic, partial curve, poor fit]",–
CC1=NNC(=O)/C1=C\c1cn(-c2ccccc2)nc1-c1cccs1,inactive,–
C/C(=N/NC(=O)c1ccc(Cl)s1)c1ccc(NC(=O)COc2ccc(Cl)cc2)cc1,"inconclusive: 14.6 µM [cytotoxic, single point]",–
O=C(O)Cn1c(SCCOc2ccccc2F)nc2ccccc21,"inconclusive: 18.4 µM [rising, single point]",–
c1coc(-c2nnc(-c3ccco3)nn2)c1,inactive,–
CN(CCOc1ccc(Cl)cc1)C(=O)c1cc(-c2ccco2)nc2ccccc12,active: 16.4 µM,–
COc1ccc(-c2csc(N3C(=O)C4C5c6ccccc6C(c6ccccc65)C4C3=O)n2)cc1 (centres undefined),active: 6.51 µM,–
Cc1nc(N2CCOCC2)c2c(C)c(C(=O)Nc3ccc(F)cc3F)sc2n1,"inconclusive: 0.731 µM [cytotoxic, partial curve, poor fit]",–
O=C(c1cccn2c(=O)c3ccccc3nc12)N1CCN(Cc2ccc3c(c2)OCO3)CC1,inactive,–
CC(=O)/C=C1\OCc2ccccc21,inactive,–
O=C(Nc1ccc(NC(=O)C2CCCCC2)nc1)c1ccccn1,"inconclusive: 8.2 µM [cytotoxic, partial curve]",–
Cc1cccc(-n2ccnc2SCC(=O)Nc2cc(C(F)(F)F)ccc2Cl)c1,inactive,–
COc1ccccc1CN(C)C(=O)c1ccccc1Sc1ccccc1C#N,"inconclusive: 4.61 µM [cytotoxic, full curve]",–
CCCCN(C)CC(O)Cn1cc(/C=C/C(=O)c2ccc(OCC)cc2)c2ccccc21 (centres undefined),"inconclusive: 20.6 µM [cytotoxic, single point]",–

# Fetched by compound from above (2):
Compound,Potency,"activity change, negative = cytotoxicity"
CCOC(=O)c1[nH]c(C)c(C(=O)NCCc2ccccc2)c1C,inactive,–
Cc1ccc2c(=O)cc(C(F)F)oc2c1,"inconclusive: 20.6 µM [rising, partial curve]",–
